According to article PMC4345284:
Results are given in words; binding and its absence hold for the method and conditions named. Binding seen in cells or lysates may run through a third protein.

Chains of the proteins cited; added tags and fusions are not shown.
UniProt Q90988: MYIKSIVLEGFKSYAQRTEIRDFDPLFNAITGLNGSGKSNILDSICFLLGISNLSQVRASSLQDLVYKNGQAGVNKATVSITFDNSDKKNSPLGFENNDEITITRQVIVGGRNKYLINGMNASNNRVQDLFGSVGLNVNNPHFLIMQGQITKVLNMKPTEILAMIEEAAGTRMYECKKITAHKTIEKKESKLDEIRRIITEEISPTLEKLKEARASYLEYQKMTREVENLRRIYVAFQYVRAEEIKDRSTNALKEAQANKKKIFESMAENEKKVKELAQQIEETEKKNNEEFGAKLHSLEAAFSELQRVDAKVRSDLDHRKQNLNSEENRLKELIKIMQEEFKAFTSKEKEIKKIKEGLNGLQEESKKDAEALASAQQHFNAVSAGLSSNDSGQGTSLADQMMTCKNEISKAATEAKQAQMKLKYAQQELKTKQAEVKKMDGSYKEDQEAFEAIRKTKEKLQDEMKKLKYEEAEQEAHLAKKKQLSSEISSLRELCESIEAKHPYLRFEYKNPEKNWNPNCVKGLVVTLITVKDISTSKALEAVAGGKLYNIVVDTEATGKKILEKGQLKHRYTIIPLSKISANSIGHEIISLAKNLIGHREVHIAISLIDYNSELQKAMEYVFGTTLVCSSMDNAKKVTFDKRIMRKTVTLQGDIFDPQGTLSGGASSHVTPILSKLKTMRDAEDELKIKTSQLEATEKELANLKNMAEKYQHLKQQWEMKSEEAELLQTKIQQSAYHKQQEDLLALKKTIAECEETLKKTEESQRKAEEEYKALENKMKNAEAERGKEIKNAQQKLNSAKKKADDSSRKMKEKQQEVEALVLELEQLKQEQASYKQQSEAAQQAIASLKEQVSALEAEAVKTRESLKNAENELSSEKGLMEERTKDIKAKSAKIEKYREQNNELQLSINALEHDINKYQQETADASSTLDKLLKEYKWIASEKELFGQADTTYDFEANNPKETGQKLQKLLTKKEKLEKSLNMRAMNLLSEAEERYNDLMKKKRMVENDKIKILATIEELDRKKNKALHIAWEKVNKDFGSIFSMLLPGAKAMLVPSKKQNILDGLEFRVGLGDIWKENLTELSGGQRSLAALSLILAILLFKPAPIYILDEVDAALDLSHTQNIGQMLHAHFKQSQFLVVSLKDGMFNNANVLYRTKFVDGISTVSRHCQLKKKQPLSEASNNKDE
UniProt A0A1D5PE93: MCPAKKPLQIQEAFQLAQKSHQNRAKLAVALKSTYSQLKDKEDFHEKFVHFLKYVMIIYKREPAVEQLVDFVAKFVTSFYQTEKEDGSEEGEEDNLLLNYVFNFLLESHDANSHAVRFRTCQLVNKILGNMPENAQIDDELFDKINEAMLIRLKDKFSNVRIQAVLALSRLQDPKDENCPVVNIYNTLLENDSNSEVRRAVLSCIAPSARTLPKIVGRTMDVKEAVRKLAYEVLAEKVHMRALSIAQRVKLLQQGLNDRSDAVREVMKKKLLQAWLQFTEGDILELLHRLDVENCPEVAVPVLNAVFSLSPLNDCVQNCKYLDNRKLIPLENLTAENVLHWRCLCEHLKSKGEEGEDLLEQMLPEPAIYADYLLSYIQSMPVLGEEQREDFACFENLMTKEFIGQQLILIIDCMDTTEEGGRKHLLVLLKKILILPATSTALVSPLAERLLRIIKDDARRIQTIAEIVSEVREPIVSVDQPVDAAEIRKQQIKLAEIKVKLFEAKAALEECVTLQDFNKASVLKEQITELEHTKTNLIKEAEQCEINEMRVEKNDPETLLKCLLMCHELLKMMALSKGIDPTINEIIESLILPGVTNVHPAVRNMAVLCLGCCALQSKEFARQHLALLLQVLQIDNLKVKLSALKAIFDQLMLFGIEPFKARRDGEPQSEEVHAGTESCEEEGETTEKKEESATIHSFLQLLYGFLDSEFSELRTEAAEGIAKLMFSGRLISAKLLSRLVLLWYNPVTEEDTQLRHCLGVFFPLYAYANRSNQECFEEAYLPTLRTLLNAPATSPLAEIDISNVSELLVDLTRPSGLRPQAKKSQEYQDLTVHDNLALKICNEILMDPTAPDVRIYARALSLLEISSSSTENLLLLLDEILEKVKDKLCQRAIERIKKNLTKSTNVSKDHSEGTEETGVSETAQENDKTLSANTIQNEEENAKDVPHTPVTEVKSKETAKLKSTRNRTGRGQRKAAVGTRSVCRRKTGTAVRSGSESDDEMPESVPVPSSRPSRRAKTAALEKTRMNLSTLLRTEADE

Target: streptavidin-binding peptide (SBP)-tagged SMC2 (chicken) (UniProt Q90988)
Assay: pull-down; SBP-tagged SMC2 captured from mitotic DT40 cell lysate on streptavidin-sepharose, 2 h at 4°C; 50 mM HEPES, 0.25 M NaCl, 0.5% NP-40; eluted with 4 mM biotin; SDS-PAGE

binding: no binding
Substance: CAP-G (from UniProt A0A1D5PE93 1-1038)
